Reference: article PMC9251878
Results are given in words; binding and its absence hold for the method and conditions named. In cells and extracts the contact can be indirect. Some entries that bind do so weakly or less than the wild type.

Protein sequences, listed by entry. Tags and fused reporters are not part of them. Lines headed by an entry give the natural chain unless they say otherwise; changes in a name come on top. Chains listed by the source or under a name are the forms on record and can include a tag or linker. Residues count along the entry.
UniProt Q8IW41: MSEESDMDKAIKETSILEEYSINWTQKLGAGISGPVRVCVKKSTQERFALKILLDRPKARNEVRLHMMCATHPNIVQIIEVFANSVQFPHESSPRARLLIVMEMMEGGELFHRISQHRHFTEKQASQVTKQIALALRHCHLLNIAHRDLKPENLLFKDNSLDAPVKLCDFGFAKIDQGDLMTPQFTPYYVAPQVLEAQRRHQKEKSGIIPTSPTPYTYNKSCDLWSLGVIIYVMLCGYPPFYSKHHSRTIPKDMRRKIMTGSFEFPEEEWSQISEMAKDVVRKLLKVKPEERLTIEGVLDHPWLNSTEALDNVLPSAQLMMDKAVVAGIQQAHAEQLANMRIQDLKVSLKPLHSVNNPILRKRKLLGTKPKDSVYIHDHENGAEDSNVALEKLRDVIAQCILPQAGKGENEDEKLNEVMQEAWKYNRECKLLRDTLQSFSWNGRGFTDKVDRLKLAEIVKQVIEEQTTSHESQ
UniProt Q9UKI8: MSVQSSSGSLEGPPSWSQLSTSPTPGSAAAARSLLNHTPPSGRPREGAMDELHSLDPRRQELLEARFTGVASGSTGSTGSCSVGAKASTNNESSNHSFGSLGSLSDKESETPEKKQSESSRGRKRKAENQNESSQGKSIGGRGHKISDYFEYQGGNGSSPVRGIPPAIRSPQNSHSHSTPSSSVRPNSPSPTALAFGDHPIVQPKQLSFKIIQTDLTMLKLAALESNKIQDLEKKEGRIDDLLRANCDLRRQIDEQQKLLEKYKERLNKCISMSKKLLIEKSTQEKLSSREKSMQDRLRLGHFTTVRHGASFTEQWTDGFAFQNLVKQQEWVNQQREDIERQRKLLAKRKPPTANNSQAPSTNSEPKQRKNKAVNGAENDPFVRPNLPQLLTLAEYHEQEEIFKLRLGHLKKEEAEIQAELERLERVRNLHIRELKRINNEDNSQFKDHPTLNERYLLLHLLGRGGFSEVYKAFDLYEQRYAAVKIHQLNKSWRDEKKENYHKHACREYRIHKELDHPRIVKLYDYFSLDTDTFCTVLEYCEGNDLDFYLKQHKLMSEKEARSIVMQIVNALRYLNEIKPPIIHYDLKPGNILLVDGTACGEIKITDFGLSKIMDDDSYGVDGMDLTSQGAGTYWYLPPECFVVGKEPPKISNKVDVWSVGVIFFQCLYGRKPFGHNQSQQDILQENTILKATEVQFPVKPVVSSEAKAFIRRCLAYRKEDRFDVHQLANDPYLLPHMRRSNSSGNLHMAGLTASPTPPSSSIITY
recombinant full‐length his‐tagged TLK1B: residues 218-766 of Q9UKI8

Key:
[1] = target: purified recombinant GST‐tagged MK5 (Sino Biological, cat# 13655‐H20B) (human) (UniProt Q8IW41); assay: pull-down; GST pull-down: 20 µg purified GST-tagged MK5 added to 400 µg lysate (1X RIPA) of HEK 293 cells co-expressing GFP-MK5 and TLK1, on ice 30 min, glutathione agarose; western blot; only the target purified
[2] = target: eGFP‐MK5 (from pEGFP‐MK5‐C1), overexpressed in HEK 293 cells (UniProt Q8IW41); assay: co-IP; 200 µg lysate of HEK 293 cells overexpressing GFP-MK5; GFP-specific antibody 4 h on ice, protein A/G agarose overnight at 4 °C; blotted for MK5 and TLK1
[3] = target: recombinant full‐length his‐tagged TLK1B (human) (UniProt Q9UKI8); assay: pull-down; His pull-down: 20 µg purified His-tagged TLK1B added to 400 µg lysate (1X RIPA) of GFP-MK5-overexpressing HEK 293 cells, on ice 30 min, Ni2+-NTA agarose; western blot; only the target purified
[4] = target: tousled‐like kinase 1 (TLK1), endogenous in LNCaP cells (human (endogenous in LNCaP)) (UniProt Q9UKI8); assay: co-IP; 200 µg LNCaP cell lysate, endogenous proteins; TLK1-specific antibody 4 h on ice, protein A/G agarose overnight at 4 °C; blotted for TLK1 and MK5

Substance	binding [1]	binding [2]	binding [3]	binding [4]
wild‐type human full‐length TLK1, overexpressed in HEK 293 cells (from UniProt Q9UKI8 1-766)	binds			
tousled‐like kinase 1 (TLK1), endogenous in HEK 293 cells (from UniProt Q9UKI8 1-766)		binds		
eGFP‐MK5 (from pEGFP‐MK5‐C1), overexpressed in HEK 293 cells (from UniProt Q8IW41 1-473)	binds		binds	
MAP kinase‐activated protein kinase 5 (MK5), endogenous in LNCaP cells (from UniProt Q8IW41 1-473)				binds
MAP kinase‐activated protein kinase 5 (MK5), endogenous in HEK 293 cells (from UniProt Q8IW41 1-473)	binds	binds	binds	
